Measurements published in PubChem BioAssay (NCATS).
This list was built around the results that the source calls inconclusive (neither active nor inactive); the mix of calls is not that of the screen. A potency beside an inconclusive call is a rough fit, not a confirmed value. Active and inactive are the calls of the source. Calls come from the whole dose curve; as a rule, active = well fitted cell-killing curve with a large enough effect; inconclusive = small, poorly fitted or top-dose-only effect, or effect the other way; inactive = no such curve, though single readings can be large or run the other way.

What was measured:
[1] = Quantitative High-Throughput drug screen in 47 multiple myeloma cell lines against the NCATS MIPE library collection: FR4_PLB cell viability assay (AID 1918924; note: nearly all actives have a fitted effect of over 35% in size); conditions: FR4_PLB myeloma cells viability, CellTiter-Glo ATP, 48 h; viability (% of DMSO control): at 45.8 µM (top of the series)
Procedure, shortened: (§1)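 Primary qHTS used for cherry-picking: cells at 500/well, library compounds for 48 h (37C, 5% CO2), luminescent ATP assay.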

[2] = Quantitative High-Throughput drug screen in 47 multiple myeloma cell lines against the NCATS MIPE library collection: Delta47_JCRB cell viability assay (AID 1918925; note: nearly all actives have a fitted effect of over 45% in size); conditions: Delta47 myeloma viability, CellTiter-Glo ATP, 48 h; viability (% of DMSO): at 45.8 µM (top of the series)
Procedure, shortened: (§2)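 Approved and investigational drugs from MIPE 4.0 were added by pin tool to 500 cells per well. After 48 hours at 37C, ATP-based CellTiter-Glo luminescence indicated remaining viability.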

[3] = Quantitative High-Throughput drug screen in 47 multiple myeloma cell lines against the NCATS MIPE library collection: EJM_DSMZ cell viability assay (AID 1918926; note: nearly all actives have a fitted effect of over 30% in size); conditions: EJM myeloma cell viability, CellTiter-Glo ATP, 48 h; viability, % of control: at 45.8 µM (top of the series)
Procedure, shortened: as §2

[4] = Quantitative High-Throughput drug screen in 47 multiple myeloma cell lines against the NCATS MIPE library collection: ARP1_JJKsccF8 cell viability assay (AID 1918928; note: nearly all actives have a fitted effect of over 40% in size); conditions: ARP1 myeloma cells viability, CellTiter-Glo ATP, 48 h; viability: at 45.8 µM (top of the series)
Procedure, shortened: (§3)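 Here, 48 h treatment with MIPE 4.0 agents at 37 °C preceded an ATP luminescence read. Plating density was 500 cells per well.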

[5] = Quantitative High-Throughput drug screen in 47 multiple myeloma cell lines against the NCATS MIPE library collection: ARD_JJKsccE7 cell viability assay (AID 1918929); conditions: ARD myeloma cell line viability, CellTiter-Glo, 48 h; viability: at 45.8 µM (top of the series)
Procedure, shortened: as §2

[6] = Quantitative High-Throughput drug screen in 47 multiple myeloma cell lines against the NCATS MIPE library collection: KMM1_JCRB cell viability assay (AID 1918960); conditions: KMM1 myeloma viability, CellTiter-Glo ATP luminescence, 48 h; viability (% of DMSO): at 45.8 µM (top of the series); note: nearly all actives have a fitted effect of over 30% in size;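 for viability (% of DMSO): 100% = DMSO-treated cells and 0% = medium-only wells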
Procedure, shortened: as §3

[7] = Quantitative High-Throughput drug screen in 47 multiple myeloma cell lines against the NCATS MIPE library collection: Karpas417_ECACC cell viability assay (AID 1918961); conditions: Karpas417 myeloma viability, CellTiter-Glo ATP luminescence, 48 h; viability (% of DMSO): at 45.8 µM (top of the series)
Procedure, shortened: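 We plated 500 myeloma cells per well, pinned in MIPE 4.0 compounds, and incubated for 48 hours at 37C. ATP was then quantified with CellTiter-Glo, with DMSO and media-only wells defining 100% and 0%.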

[8] = Quantitative High-Throughput drug screen in 47 multiple myeloma cell lines against the NCATS MIPE library collection: Karpas620_DSMZ cell viability assay (AID 1918959); conditions: Karpas620 myeloma viability, CellTiter-Glo ATP luminescence, 48 h; viability (% of DMSO): at 45.8 µM (top of the series); note: nearly all actives have a fitted effect of over 30% in size
Procedure, shortened: as §1

[9] = Quantitative High-Throughput drug screen in 47 multiple myeloma cell lines against the NCATS MIPE library collection: AMO1_DSMZ cell viability assay (AID 1918927; note: nearly all actives have a fitted effect of over 30% in size); conditions: AMO1 myeloma cells viability, CellTiter-Glo ATP luminescence, 48 h; viability, % of DMSO: at 45.8 µM (top of the series)
Procedure, shortened: as §2
Potency is the fitted concentration of half-maximal effect.

| Structure (SMILES) | Potency [1] | Potency [2] | Potency [3] | Potency [4] | Potency [5] | Potency [6] | Potency [7] | Potency [8] | viability (% of DMSO) [7] | Potency [9] | viability [4] |
| --- | --- | --- | --- | --- | --- | --- | --- | --- | --- | --- | --- |
| COc1ccc2[nH]cc(CCNC(C)=O)c2c1 | inconclusive: 5.9 µM [cytotoxic, partial curve, poor fit] | inconclusive: 0.003 µM [cytotoxic, full curve, poor fit] | inactive | inconclusive: 16.6 µM [cytotoxic, partial curve] | inactive | inactive | inactive | – | – | – | – |
| CCc1ccc(CCOc2ccc(CC3SC(=O)NC3=O)cc2)nc1 (stereo not given) | inactive | inconclusive: 0.0105 µM [cytotoxic, full curve, poor fit] | inconclusive: 18.7 µM [cytotoxic, partial curve, poor fit] | inconclusive: 0.105 µM [cytotoxic, full curve, poor fit] | – | inactive | inconclusive: 0.0026 µM [cytotoxic, full curve, poor fit] | – | – | – | – |
| Nc1ncn([C@H]2C[C@H](O)[C@@H](CO)O2)c(=O)n1 | inactive | inconclusive: 5.9 µM [cytotoxic, partial curve, poor fit] | inactive | inconclusive: 0.059 µM [cytotoxic, full curve, poor fit] | active: 0.418 µM | active: 0.296 µM | – | active: 0.132 µM | inconclusive: 76% [cytotoxic] | – | – |
| CC(C)(C)c1cc(NC(=O)Nc2ccc(-c3cn4c(n3)sc3cc(OCCN5CCOCC5)ccc34)cc2)no1 | inconclusive: 14.8 µM [cytotoxic, partial curve] | inconclusive: 1.18 µM [cytotoxic, full curve] | – | inconclusive: 10.5 µM [cytotoxic, partial curve, poor fit] | inconclusive: 0.264 µM [cytotoxic, full curve, poor fit] | inconclusive: 0.0372 µM [cytotoxic, full curve] | inconclusive: 0.105 µM [cytotoxic, full curve, poor fit] | – | – | inconclusive: 14.8 µM [cytotoxic, partial curve, poor fit] | – |
| COc1cc2nc(N3CCN(C(=O)C4COc5ccccc5O4)CC3)nc(N)c2cc1OC (stereo not given) | inconclusive: 20.9 µM [cytotoxic, single point] | inconclusive: 29.6 µM [cytotoxic, single point] | – | inconclusive: 0.0372 µM [rising, full curve, poor fit] | inconclusive: 0.59 µM [cytotoxic, full curve, poor fit] | – | inconclusive: 29.6 µM [rising, partial curve, poor fit] | inconclusive: 10.5 µM [cytotoxic, single point] | – | inconclusive: 0.935 µM [cytotoxic, full curve, poor fit] | – |
| N#CC[C@H](C1CCCC1)n1cc(-c2ncnc3[nH]ccc23)cn1 | inconclusive: 33.2 µM [cytotoxic, single point] | inconclusive: 26.4 µM [cytotoxic, partial curve, poor fit] | active: 7.43 µM | inactive | – | inconclusive: 9.35 µM [cytotoxic, single point] | inconclusive: 33.2 µM [rising, single point] | – | – | – | – |
| O=C(O)c1cn(C2CC2)c2cc(N3CCNCC3)c(F)cc2c1=O | inactive | inconclusive: 1.05 µM [rising, partial curve, poor fit] | – | inactive | inconclusive: 0.0037 µM [cytotoxic, full curve, poor fit] | inactive | inconclusive: 4.18 µM [rising, full curve, poor fit] | – | – | inconclusive: 0.0187 µM [rising, full curve, poor fit] | – |
| Cc1ccc2c(=O)c3cccc(CC(=O)O)c3oc2c1C | inconclusive: 26.4 µM [cytotoxic, single point] | inconclusive: 33.2 µM [cytotoxic, single point] | – | inconclusive: 33.2 µM [cytotoxic, single point] | inactive | – | inconclusive: 14.8 µM [rising, partial curve, poor fit] | – | – | inactive | – |
| Nc1ccc(S(=O)(=O)Nc2ncccn2)cc1 | inconclusive: 0.0023 µM [rising, full curve, poor fit] | inconclusive: 0.0012 µM [rising, full curve, poor fit] | – | inconclusive: 0.0021 µM [rising, full curve, poor fit] | inactive | inconclusive: 0.0017 µM [rising, full curve] | inconclusive: 0.0042 µM [rising, full curve, poor fit] | – | – | inactive | – |
| O=c1ncn2nc(Sc3ccc(F)cc3F)ccc2c1-c1c(Cl)cccc1Cl | inactive | inconclusive: 3.72 µM [cytotoxic, full curve] | inconclusive: 20.9 µM [cytotoxic, partial curve] | inconclusive: 0.0066 µM [cytotoxic, full curve, poor fit] | inconclusive: 16.6 µM [cytotoxic, partial curve] | inconclusive: 5.26 µM [cytotoxic, partial curve, poor fit] | – | inconclusive: 33.2 µM [cytotoxic, single point] | – | – | – |
| CN[C@H]1[C@@H](O[C@@H]2[C@H](O[C@@H]3[C@@H](O)[C@@H](O)[C@@H](N=C(N)N)[C@@H](O)[C@@H]3N=C(N)N)O[C@H](C)[C@@]2(O)C=O)O[C@@H](CO)[C@@H](O)[C@H]1O | inactive | inactive | – | inactive | inconclusive: 0.0422 µM [cytotoxic, full curve, poor fit] | – | inconclusive: 6.69 µM [rising, partial curve, poor fit] | – | – | inconclusive: 0.006 µM [cytotoxic, full curve, poor fit] | – |
| CNC(=O)c1ccc2c(C(=Nc3cccc(CN(C)C)c3)c3ccccc3)c(O)[nH]c2c1 | inactive | – | inconclusive: 20.9 µM [cytotoxic, single point] | – | inconclusive: 9.35 µM [cytotoxic, full curve, poor fit] | inconclusive: 2.64 µM [cytotoxic, partial curve] | inconclusive: 3.72 µM [cytotoxic, partial curve, poor fit] | inconclusive: 5.9 µM [cytotoxic, full curve] | – | inconclusive: 18.7 µM [cytotoxic, partial curve] | – |
| Cc1cccc(CN2CCN(C(c3ccccc3)c3ccc(Cl)cc3)CC2)c1 (stereo not given) | inactive | – | active: 18.7 µM | inconclusive: 33.2 µM [cytotoxic, single point] | active: 26.4 µM | inconclusive: 33.2 µM [cytotoxic, single point] | inactive | inconclusive: 26.4 µM [cytotoxic, single point] | – | inconclusive: 29.6 µM [cytotoxic, single point] | – |
| CO[C@@H]1C(N(C)C(=O)c2ccccc2)C[C@H]2O[C@]1(C)n1c3ccccc3c3c4c(c5c6ccccc6n2c5c31)C(=O)NC4=O (stereo not given in full) | inconclusive: 0.0187 µM [rising, full curve, poor fit] | – | inconclusive: 20.9 µM [cytotoxic, single point] | – | active: 1.87 µM | inconclusive: 4.18 µM [cytotoxic, full curve] | inconclusive: 0.332 µM [cytotoxic, full curve, poor fit] | inactive | – | inconclusive: 2.35 µM [cytotoxic, full curve] | – |
| O=C(C=Cc1c(C(=O)O)[nH]c2cc(Cl)cc(Cl)c12)Nc1ccccc1 | inconclusive: 6.62 µM [rising, full curve, poor fit] | inactive | – | – | – | inactive | inactive | – | – | – | – |
| CC1=C(C(=O)Nc2cc3cn[nH]c3cc2F)C(c2ccc(Cl)cc2F)N=C(c2ccnc(Cl)c2)N1 (stereo not given) | inconclusive: 33.2 µM [cytotoxic, single point] | – | inconclusive: 16.6 µM [cytotoxic, partial curve, poor fit] | – | active: 20.9 µM | – | – | – | – | – | inconclusive: 59.3% [cytotoxic] |
| CCCCCCOC(=O)N=C(N)c1ccc(NCc2nc3cc(C(=O)N(CCC(=O)OCC)c4ccccn4)ccc3n2C)cc1 | active: 23.5 µM | – | inconclusive: 26.4 µM [cytotoxic, partial curve] | inconclusive: 29.6 µM [cytotoxic, single point] | – | active: 16.6 µM | inconclusive: 9.35 µM [cytotoxic, full curve, poor fit] | – | – | inconclusive: 29.6 µM [cytotoxic, single point] | – |

Retrieved one by one from the list above, two records:

| Structure (SMILES) | Potency [1] | Potency [2] | Potency [3] | Potency [4] | Potency [5] | Potency [6] | Potency [7] | Potency [8] | viability (% of DMSO) [7] | Potency [9] | viability [4] |
| --- | --- | --- | --- | --- | --- | --- | --- | --- | --- | --- | --- |
| CN[C@H]1[C@@H](O[C@@H]2[C@H](O[C@@H]3[C@@H](O)[C@@H](O)[C@@H](N=C(N)N)[C@@H](O)[C@@H]3N=C(N)N)O[C@H](C)[C@@]2(O)C=O)O[C@@H](CO)[C@@H](O)[C@H]1O | inactive | inactive | – | inactive | inconclusive: 0.0422 µM [cytotoxic, full curve, poor fit] | – | inconclusive: 6.69 µM [rising, partial curve, poor fit] | – | – | inconclusive: 0.006 µM [cytotoxic, full curve, poor fit] | – |
| N#CC[C@H](C1CCCC1)n1cc(-c2ncnc3[nH]ccc23)cn1 | inconclusive: 33.2 µM [cytotoxic, single point] | inconclusive: 26.4 µM [cytotoxic, partial curve, poor fit] | active: 7.43 µM | inactive | – | inconclusive: 9.35 µM [cytotoxic, single point] | inconclusive: 33.2 µM [rising, single point] | – | – | – | – |
